The other results are listed elsewhere or left out.
What was measured:
Test in all cases: log2 fold change, soluble protein after heating vs DMSO (PISA); higher = thermal stabilisation; K562 lysate, 10 uM; active = over 0.2 and 3.5 SD of the protein, either way, in both replicates (recomputed)
[1] = compound: CN1CC[C@H](c2c(O)cc(O)c3c(=O)cc(-c4ccccc4Cl)oc23)[C@H](O)C1 [alvocidib]
Procedure, shortened: (§1)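 K562 pellets were dounce-homogenised in PBS pH 7.4 containing 1 mM MgCl2, and the crude extract, at 1 mg/mL protein, was exposed to 10 μM compound for 30 min. Aliquots were heated for 3 min across 48°C-58°C, pooled, brought to 0.5% NP-40 at 4°C and spun at 21,000xg for 90 min, with the supernatant taken as soluble protein. TMTpro 16plex LC-MS/MS with equalised channel sums quantified that protein. Values are log-two fold changes in thermal stability relative to solvent controls, taken from duplicates.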

Chains of the proteins cited; added tags and fusions are not shown. Lines headed by an entry give the natural chain unless they say otherwise; changes in a name come on top.
UniProt P53609, whole entry, looked up: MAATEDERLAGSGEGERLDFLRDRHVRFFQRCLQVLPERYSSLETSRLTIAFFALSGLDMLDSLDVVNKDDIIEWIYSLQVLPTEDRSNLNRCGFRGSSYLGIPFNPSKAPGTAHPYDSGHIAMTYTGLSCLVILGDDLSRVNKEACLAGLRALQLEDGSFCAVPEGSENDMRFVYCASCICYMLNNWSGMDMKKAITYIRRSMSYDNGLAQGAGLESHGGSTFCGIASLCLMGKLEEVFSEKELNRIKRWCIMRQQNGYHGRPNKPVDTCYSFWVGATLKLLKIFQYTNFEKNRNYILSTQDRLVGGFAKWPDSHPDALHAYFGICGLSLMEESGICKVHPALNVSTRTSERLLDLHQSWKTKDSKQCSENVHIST
UniProt Q13526, whole entry, looked up: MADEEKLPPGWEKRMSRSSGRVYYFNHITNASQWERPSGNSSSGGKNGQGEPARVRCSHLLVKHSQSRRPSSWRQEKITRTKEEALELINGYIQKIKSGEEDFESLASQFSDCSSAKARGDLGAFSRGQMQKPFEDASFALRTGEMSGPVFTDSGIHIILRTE
UniProt P27986, whole entry, looked up: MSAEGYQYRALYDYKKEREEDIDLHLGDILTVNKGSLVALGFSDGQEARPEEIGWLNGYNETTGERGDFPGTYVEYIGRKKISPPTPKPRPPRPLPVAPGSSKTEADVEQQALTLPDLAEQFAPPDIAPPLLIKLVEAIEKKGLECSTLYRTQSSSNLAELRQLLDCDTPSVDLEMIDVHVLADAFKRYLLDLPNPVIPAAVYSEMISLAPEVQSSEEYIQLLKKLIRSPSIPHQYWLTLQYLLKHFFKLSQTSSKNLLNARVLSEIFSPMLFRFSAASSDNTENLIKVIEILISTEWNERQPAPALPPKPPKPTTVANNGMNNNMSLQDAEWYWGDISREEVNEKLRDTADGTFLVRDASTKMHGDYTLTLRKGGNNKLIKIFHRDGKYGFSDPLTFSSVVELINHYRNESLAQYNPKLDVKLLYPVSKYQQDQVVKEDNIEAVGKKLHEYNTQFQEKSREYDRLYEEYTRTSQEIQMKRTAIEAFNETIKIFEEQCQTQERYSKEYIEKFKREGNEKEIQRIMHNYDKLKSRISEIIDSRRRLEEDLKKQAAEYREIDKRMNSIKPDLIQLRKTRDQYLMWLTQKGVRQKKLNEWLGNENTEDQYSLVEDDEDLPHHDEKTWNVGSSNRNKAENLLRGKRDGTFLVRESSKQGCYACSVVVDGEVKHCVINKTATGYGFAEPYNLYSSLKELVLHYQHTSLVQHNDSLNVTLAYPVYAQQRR
UniProt Q15149: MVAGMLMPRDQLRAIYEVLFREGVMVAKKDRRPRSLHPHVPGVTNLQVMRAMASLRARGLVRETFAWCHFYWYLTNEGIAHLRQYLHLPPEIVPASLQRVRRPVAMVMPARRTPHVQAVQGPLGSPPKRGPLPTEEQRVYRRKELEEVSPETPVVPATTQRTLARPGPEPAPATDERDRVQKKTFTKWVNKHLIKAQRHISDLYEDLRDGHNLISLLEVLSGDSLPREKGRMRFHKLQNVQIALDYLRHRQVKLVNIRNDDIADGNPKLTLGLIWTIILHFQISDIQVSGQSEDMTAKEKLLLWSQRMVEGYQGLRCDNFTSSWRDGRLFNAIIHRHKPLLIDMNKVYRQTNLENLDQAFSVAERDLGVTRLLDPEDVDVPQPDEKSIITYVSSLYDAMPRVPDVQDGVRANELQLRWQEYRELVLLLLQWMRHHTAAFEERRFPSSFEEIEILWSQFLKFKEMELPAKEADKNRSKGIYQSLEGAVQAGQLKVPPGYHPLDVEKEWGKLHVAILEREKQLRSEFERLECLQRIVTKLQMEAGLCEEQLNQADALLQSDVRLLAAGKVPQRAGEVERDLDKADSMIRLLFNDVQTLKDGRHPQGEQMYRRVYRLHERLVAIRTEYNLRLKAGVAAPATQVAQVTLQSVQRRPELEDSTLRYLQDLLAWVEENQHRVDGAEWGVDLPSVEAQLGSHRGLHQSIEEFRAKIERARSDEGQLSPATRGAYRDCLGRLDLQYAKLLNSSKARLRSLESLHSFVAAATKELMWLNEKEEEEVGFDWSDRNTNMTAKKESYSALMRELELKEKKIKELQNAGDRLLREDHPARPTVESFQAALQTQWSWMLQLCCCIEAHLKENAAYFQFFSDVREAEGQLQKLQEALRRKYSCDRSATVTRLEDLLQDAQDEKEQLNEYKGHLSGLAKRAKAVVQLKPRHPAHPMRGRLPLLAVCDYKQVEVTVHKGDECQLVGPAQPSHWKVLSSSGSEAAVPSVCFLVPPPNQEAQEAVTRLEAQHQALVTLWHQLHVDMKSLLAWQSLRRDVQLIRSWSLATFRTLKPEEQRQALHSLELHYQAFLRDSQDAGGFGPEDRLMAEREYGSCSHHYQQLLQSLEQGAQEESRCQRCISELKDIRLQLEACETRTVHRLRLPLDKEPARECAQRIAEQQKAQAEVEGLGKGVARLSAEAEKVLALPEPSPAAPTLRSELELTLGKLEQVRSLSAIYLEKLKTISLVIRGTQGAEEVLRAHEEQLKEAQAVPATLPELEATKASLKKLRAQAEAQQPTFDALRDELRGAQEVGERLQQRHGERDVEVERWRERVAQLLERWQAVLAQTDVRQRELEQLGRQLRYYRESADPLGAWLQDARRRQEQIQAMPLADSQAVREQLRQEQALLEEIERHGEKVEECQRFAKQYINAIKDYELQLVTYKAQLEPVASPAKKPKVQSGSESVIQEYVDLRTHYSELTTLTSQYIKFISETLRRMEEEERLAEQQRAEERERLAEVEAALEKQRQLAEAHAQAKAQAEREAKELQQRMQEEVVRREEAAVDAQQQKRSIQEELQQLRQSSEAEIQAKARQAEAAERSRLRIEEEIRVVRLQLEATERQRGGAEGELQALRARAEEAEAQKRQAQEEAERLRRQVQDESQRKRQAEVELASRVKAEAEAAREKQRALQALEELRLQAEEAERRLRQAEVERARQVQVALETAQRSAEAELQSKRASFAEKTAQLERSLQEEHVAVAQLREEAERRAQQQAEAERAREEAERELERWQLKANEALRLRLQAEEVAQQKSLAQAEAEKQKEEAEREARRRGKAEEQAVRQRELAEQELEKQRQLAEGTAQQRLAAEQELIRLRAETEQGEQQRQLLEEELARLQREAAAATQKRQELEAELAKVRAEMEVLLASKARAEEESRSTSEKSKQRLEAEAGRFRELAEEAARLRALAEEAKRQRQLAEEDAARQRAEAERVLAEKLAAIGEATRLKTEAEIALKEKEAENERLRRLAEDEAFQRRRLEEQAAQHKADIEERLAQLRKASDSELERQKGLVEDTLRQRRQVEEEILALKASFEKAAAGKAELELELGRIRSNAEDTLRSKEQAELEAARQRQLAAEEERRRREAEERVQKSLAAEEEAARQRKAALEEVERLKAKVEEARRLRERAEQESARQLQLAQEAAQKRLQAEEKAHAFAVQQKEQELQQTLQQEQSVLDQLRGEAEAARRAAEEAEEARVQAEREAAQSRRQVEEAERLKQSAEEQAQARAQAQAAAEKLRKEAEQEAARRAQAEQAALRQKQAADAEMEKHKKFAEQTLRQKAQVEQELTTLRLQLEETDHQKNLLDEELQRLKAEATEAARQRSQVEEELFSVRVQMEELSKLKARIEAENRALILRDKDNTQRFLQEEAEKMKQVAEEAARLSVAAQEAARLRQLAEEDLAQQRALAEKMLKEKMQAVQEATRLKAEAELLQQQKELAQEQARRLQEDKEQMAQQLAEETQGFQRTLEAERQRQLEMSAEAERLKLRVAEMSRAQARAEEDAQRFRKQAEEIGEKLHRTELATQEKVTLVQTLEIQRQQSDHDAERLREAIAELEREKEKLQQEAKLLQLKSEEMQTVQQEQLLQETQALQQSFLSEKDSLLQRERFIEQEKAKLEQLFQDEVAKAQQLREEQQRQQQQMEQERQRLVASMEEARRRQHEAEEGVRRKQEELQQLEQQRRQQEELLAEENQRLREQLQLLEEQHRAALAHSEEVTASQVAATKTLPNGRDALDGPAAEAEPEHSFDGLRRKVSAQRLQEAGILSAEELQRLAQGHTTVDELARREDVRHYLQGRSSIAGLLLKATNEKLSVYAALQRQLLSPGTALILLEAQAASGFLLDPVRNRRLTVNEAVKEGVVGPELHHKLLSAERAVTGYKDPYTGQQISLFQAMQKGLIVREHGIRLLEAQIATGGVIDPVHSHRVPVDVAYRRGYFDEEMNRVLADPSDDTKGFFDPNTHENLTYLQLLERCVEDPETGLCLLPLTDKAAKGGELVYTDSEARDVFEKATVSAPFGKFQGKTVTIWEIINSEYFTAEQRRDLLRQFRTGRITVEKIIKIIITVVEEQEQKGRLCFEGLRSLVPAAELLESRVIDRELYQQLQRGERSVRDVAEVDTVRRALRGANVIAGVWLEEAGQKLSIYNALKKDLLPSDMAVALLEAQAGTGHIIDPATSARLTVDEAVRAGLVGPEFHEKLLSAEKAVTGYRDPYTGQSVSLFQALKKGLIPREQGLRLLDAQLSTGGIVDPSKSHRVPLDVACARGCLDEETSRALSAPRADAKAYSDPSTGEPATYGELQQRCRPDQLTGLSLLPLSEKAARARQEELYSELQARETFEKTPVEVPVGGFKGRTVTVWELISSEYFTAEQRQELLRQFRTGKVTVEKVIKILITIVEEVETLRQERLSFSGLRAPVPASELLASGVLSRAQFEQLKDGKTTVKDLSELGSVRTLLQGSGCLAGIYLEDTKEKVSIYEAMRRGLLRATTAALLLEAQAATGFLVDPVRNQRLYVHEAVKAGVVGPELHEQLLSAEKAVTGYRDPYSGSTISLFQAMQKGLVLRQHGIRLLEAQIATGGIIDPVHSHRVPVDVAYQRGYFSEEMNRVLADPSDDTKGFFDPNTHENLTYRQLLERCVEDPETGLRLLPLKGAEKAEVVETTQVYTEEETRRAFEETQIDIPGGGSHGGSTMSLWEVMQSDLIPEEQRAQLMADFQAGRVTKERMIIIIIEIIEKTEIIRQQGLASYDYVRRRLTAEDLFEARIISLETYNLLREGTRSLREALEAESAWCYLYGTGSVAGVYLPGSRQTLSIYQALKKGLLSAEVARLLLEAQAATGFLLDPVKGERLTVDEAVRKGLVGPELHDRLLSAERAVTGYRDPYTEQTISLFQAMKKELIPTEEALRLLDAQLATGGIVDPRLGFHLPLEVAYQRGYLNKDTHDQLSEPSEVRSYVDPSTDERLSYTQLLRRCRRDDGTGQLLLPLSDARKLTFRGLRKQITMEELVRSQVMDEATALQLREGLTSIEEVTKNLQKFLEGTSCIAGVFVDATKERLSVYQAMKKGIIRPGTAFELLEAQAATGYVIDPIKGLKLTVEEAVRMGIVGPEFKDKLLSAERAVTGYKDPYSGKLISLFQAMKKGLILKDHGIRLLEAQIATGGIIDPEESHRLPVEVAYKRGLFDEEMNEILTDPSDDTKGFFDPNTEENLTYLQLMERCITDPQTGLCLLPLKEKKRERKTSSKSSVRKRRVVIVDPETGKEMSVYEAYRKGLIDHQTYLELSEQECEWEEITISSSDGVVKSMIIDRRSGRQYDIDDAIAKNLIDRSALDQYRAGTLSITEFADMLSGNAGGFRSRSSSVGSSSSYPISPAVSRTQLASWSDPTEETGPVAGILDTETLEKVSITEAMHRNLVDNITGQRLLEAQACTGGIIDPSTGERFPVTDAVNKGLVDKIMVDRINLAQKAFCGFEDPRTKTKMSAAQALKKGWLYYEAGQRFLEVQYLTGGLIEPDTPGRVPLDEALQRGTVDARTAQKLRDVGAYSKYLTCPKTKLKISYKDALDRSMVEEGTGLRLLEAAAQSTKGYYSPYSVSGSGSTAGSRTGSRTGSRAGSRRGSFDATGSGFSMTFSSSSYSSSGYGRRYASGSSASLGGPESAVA
UniProt Q9C010: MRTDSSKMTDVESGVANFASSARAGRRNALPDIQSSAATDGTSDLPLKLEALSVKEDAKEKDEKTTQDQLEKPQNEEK
UniProt P37287: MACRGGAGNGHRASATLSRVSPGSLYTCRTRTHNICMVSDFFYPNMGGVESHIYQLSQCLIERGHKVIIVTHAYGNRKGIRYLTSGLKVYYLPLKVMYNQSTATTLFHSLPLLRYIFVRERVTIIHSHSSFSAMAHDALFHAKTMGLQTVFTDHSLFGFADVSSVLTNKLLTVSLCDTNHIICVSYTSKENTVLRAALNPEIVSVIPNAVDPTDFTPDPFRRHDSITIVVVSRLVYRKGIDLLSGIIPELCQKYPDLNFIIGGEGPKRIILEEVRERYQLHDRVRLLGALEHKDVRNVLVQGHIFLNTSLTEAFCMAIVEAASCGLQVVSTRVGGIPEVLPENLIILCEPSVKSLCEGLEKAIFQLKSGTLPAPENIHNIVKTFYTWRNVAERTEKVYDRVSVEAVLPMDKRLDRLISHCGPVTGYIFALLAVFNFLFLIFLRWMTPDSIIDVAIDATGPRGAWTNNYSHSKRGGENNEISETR

[2] = compound: CN1CCc2c(c3ccccc3n2Cc2ccc(C(=O)NO)cc2)C1 [Tubastatin A]
Procedure, shortened: as §1

[3] = compound: CNC(=O)C1=CC=CC=C1NC2=NC(=NC=C2Cl)NC3=C(C=C(C=C3)N4CCOCC4)OC
Procedure, shortened: as §1

[4] = compound: CNC(=O)c1ccc(Nc2ncc(C(F)(F)F)c(NCc3nccnc3N(C)S(C)(=O)=O)n2)cc1 [defactinib]
Procedure, shortened: as §1

[5] = compound: CNc1nc(-c2ccc3c(N)n[nH]c3c2)cc(N2C[C@@H](C(=O)NC3CCCCC3)CC[C@H]2C)n1
Procedure, shortened: as §1

[6] = compound: COC(=O)N[C@@H](C)CNc1nccc(-c2cn(C(C)C)nc2-c2cc(Cl)cc(NS(C)(=O)=O)c2F)n1 [encorafenib]
Procedure, shortened: as §1

[7] = compound: COC(=O)[C@H](CCSC)NC(=O)C1=C(C=C(C=C1)NC[C@H](CS)N)C2=CC=CC=C2
Procedure, shortened: as §1

[8] = compound: COc1cc(Nc2ncc3c(n2)-c2ccc(Cl)cc2C(c2c(F)cccc2OC)=NC3)ccc1C(=O)O [alisertib]
Procedure, shortened: as §1

[9] = compound: COc1cc2nc(-c3cc(F)ccc3O)nc(N[C@@H]3CNC[C@H]3C(C)(C)O)c2cc1OC
Procedure, shortened: as §1

[10] = compound: COc1cc2ncnc(Nc3ccc(F)c(Cl)c3)c2cc1OCCCN1CCOCC1 [gefitinib]
Procedure, shortened: as §1

Measured: log2 fold change

PLD1 (UniProt Q13393)
inactive: [1] -0.018 | [2] 0.076 | [3] 0.001 | [4] 0.055 | [5] -0.025 | [6] 0.068 | [7] -0.028 | [8] -0.009 | [9] 0.017 | [10] 0.011

PGGT1B (UniProt P53609)
active: [7] 0.454
inactive: [1] 0.032 | [2] 0.036 | [3] -0.068 | [4] 0.022 | [5] -0.117 | [6] -0.039 | [8] -0.011 | [9] -0.032 | [10] -0.021

PIN1 (UniProt Q13526)
inactive: [1] -0.027 | [2] 0.008 | [3] -0.003 | [4] 0.02 | [5] -0.026 | [6] -0.014 | [7] -0.019 | [8] -0.001 | [9] 0.009 | [10] -0.02

PIBF1 (UniProt Q8WXW3)
inactive: [1] 0 | [2] -0.058 | [3] 0.02 | [4] 0.039 | [5] -0.089 | [6] 0.048 | [7] -0.146 | [8] -0.01 | [9] -0.158 | [10] -0.011

PGM2 (UniProt Q96G03)
inactive: [1] -0.003 | [2] 0.033 | [3] -0.011 | [4] -0.024 | [5] -0.007 | [6] 0 | [7] -0.025 | [8] -0.024 | [9] 0.017 | [10] -0.015

PI4K2A (UniProt Q9BTU6)
inactive: [1] -0.006 | [2] -0.037 | [3] 0.021 | [4] -0.023 | [5] 0.012 | [6] 0.022 | [7] -0.092 | [8] -0.008 | [9] -0.056 | [10] 0.021

PHAX (UniProt Q9H814)
inactive: [1] -0.007 | [2] 0.03 | [3] 0.019 | [4] 0.015 | [5] 0.056 | [6] 0.007 | [7] -0.04 | [8] 0.035 | [9] -0.018 | [10] 0.055

PLEKHF2 (UniProt Q9H8W4)
inactive: [1] 0.011 | [2] -0.065 | [3] -0.009 | [4] 0.002 | [5] -0.095 | [6] 0.074 | [7] -0.047 | [8] -0.043 | [9] -0.002 | [10] -0.085

PIK3R1 (UniProt P27986)
inactive: [1] 0.032 | [2] -0.037 | [3] 0.075 | [4] -0.066 | [5] -0.039 | [6] -0.025 | [7] -0.111 | [8] 0.078 | [9] 0.023 | [10] -0.045

PKN3 (UniProt Q6P5Z2)
inactive: [1] 0.034 | [2] 0.157 | [3] 0.032 | [4] -0.007 | [5] 0.008 | [6] 0.088 | [7] -0.064 | [8] -0.001 | [10] 0.008

PLCB2 (UniProt Q00722)
inactive: [1] 0.136 | [2] 0.145 | [3] 0.019 | [4] 0.009 | [5] 0.015 | [6] 0.011 | [7] 0.083 | [8] 0.071 | [9] -0.014 | [10] -0.128

PGK2 (UniProt P07205)
inactive: [1] 0.135 | [2] 0.078 | [4] 0.074 | [6] 0.002 | [7] 0.303 | [9] -0.312

PHC2 isoform 5 (UniProt Q8IXK0)
inactive: [1] -0.067 | [4] 0.125 | [6] 0.023 | [7] -0.022 | [8] 0.102 | [10] 0.052

PHF8 (UniProt Q9UPP1)
inactive: [1] -0.194 | [2] 0.025 | [3] -0.036 | [4] -0.096 | [6] 0.133 | [7] 0.193 | [8] 0.106 | [10] -0.014

PHF2 (UniProt O75151)
inactive: [2] -0.071

PIAS1 isoform 2 (UniProt O75925)
inactive: [1] 0.007 | [3] 0.116 | [5] -0.051 | [8] 0.094 | [10] 0.242

PLEKHA2 (UniProt Q9HB19)
inactive: [1] -0.006 | [2] -0.089 | [3] 0.011 | [5] 0.086 | [8] 0.053 | [10] -0.044

PIGU (UniProt Q9H490)
inactive: [1] -0.018 | [2] 0.126 | [3] -0.042 | [4] 0.075 | [5] -0.014 | [8] 0.023 | [9] -0.027 | [10] -0.011

PHC3 isoform 7 (UniProt Q8NDX5)
inactive: [1] -0.022 | [3] 0.084 | [4] 0.044 | [5] 0.02 | [6] 0.229 | [7] -0.135 | [8] 0.136 | [9] 0.058 | [10] 0.025

PIGQ (UniProt Q9BRB3)
inactive: [1] -0.009 | [4] 0.052 | [6] 0.212 | [7] -0.199 | [9] -0.027

PIK3CD (UniProt O00329)
inactive: [1] -0.105 | [2] 0.012 | [3] 0.021 | [4] 0.052 | [5] -0.047 | [8] -0.027 | [9] 0.027

PHF13 (UniProt Q86YI8)
inactive: [1] -0.278 | [2] 0.01 | [9] 0.128

PIM2 (UniProt Q9P1W9)
inactive: [1] 0.076 | [2] -0.07 | [5] 0 | [8] -0.083 | [10] -0.201

PLEC isoform 3 (UniProt Q15149)
inactive: [1] 0.135 | [4] 0.042 | [6] -0.216 | [7] -0.047

PKN2 (UniProt Q16513)
inactive: [1] -0.052 | [2] -0.043 | [3] 0.047 | [4] -0.015 | [5] 0.045 | [6] 0.037 | [7] 0.049 | [9] -0.037 | [10] 0

PLCG2 (UniProt P16885)
inactive: [1] 0.1 | [2] -0.102 | [3] -0.151 | [4] 0.131 | [6] 0.051 | [7] 0.038 | [8] -0.015 | [9] -0.07 | [10] 0.021

PLA2G12A (UniProt Q9BZM1)
inactive: [1] -0.009 | [2] 0.036 | [3] 0.125 | [4] 0.07 | [5] 0.022 | [8] 0.068 | [9] -0.039 | [10] 0.432

Quoted from the listing (2 entries):
PIM2 (UniProt Q9P1W9)
inactive: [1] 0.076 | [2] -0.07 | [5] 0 | [8] -0.083 | [10] -0.201

PLEC isoform 3 (UniProt Q15149)
inactive: [1] 0.135 | [4] 0.042 | [6] -0.216 | [7] -0.047

Next entries:

PIP5K1A (UniProt Q99755)
inactive: [1] 0.077 | [2] -0.043 | [3] 0.027 | [5] -0.074 | [8] -0.121 | [9] -0.023 | [10] -0.024

PKIB isoform 2 (UniProt Q9C010)
inactive: [1] 0.103 | [2] 0.086 | [9] -0.067

PIGA (UniProt P37287)
inactive: [1] -0.054 | [2] 0.067 | [3] -0.014 | [4] -0.074 | [5] 0 | [6] -0.019 | [7] 0.063 | [9] -0.038

PKMYT1 (UniProt Q99640)
inactive: [1] 0.01 | [2] 0.244 | [4] 0.045 | [5] -0.06 | [6] 0.023 | [7] 0.117 | [8] -0.067 | [10] 0.033

PHF20 (UniProt Q9BVI0)
inactive: [2] -0.133

PIGB (UniProt Q92521)
inactive: [1] 0.015 | [2] -0.029 | [4] -0.471 | [6] 0.11 | [7] 0.089
